No constants are given. Whether binding was seen depends on the method and setting. Binding seen in cells or lysates may run through a third protein. A result given as binding can be weak or reduced; the word gives no strength. Sequences can lack the tags named with a protein.
Biological target: T1, flag tagged human SGLT1 (sodium/glucose co-transporter 1) (human) (UniProt P13866)
T1 sequence (looked up): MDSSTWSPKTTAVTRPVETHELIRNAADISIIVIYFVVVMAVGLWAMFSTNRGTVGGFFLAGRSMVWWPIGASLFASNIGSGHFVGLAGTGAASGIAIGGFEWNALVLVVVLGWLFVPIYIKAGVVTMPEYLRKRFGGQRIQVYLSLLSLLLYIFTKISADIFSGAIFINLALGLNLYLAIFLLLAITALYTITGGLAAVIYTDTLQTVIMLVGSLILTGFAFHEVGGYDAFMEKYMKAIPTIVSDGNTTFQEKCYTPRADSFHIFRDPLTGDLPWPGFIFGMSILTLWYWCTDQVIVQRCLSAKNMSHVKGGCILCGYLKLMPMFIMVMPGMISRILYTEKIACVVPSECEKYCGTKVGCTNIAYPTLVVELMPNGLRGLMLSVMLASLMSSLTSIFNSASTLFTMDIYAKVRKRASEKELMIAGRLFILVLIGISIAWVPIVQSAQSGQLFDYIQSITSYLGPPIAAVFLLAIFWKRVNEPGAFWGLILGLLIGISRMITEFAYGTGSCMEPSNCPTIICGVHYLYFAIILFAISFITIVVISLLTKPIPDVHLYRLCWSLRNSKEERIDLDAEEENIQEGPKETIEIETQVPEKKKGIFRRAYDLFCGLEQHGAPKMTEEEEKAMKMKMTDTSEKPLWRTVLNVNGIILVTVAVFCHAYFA
Assay: co-IP of flag tagged SGLT1, Western blot for HA tagged truncated EGFRs that include the TM domain

binding: binds
Substance: EGFR with extracellular domain deletion (1-644aa), HA tagged (receptor)

Reference: patent publication US9770482B2, “Targeting the EGFR-SGLT1 interaction for cancer therapy” (The University of Houston System, priority 2013, dated 2017)
